The supplement of paper PMC5949888
Most values lie at the floor of the assay. Slopes are relative: functional sequences can read slightly below zero.

System: Saccharomyces cerevisiae PS128 hsf1 delta, HSF1(1-493) fusion
Experiment: growth estimate (transactivation domain function in HSF1 fusion, heat-shock survival) (a.u. (slope of normalised read count over time)); higher = stronger growth at 37°C, i.e. more transactivation activity
Settings: library: random library

Row | Substance | growth estimate
1 | LVSVARYS | < -0.25
2 | FPLLASS | < -0.25
3 | HGDGGVSGGTKLSVVLSDTR | < -0.25
4 | HAEHQCEGRGPVTCMN | < -0.25
5 | FRAMVRALSLMPCRTVTKAN | < -0.25
6 | VPQCPGL | < -0.25
7 | YSTMFSCRDLVVLQEGAPLC | < -0.25
8 | SLRVSSGIRTHAPVVLPRIY | < -0.25
9 | ASSNWSSREGDELLRWRRVS | < -0.25
10 | SELHCETKSRSTIPEPESPN | < -0.25
11 | SLDIGVKPHVLGRRG | -0.25
12 | SGFCISTIENSTECLSPSPF | < -0.25
13 | VHPGPGIAEPPKLEWTRSCS | < -0.25
14 | LRLG | < -0.253
15 | CTDY | < -0.25
16 | HQIVDYNTALS | < -0.25
17 | THRK | < -0.25
18 | DAI | < -0.25
19 | GPYEGDWPRSVYHHADGFPR | < -0.25
20 | DKTIAY | < -0.25
21 | LLLHSRLYA | < -0.25
22 | REPARPSRPPHPIDWEIPSC | < -0.25
23 | VKGEIALCGSIVYESGYTCK | < -0.25
24 | FHSIRAGHGEVFPGLVLART | < -0.25
25 | SAGSRRAVARINPALDVGGV | < -0.25

Row | Substance | growth estimate
26 | PTGVDFWELW | < -0.25
27 | GRICNESIARLSGAIPYCGF | < -0.25
28 | PRSDPLPSGQVRVCRYTTAE | < -0.25
29 | ICPRYVVGGA | < -0.25
30 | HLANQYSRVGRPESTEGKLD | < -0.25
31 | NMA | < -0.25
32 | GFTKPGFIVARLNL | < -0.25
33 | DSSQR | < -0.25
34 | PNIKPRKERRDKGALRCQCL | < -0.25
35 | STFRRVSAYIMYRPRISVVG | < -0.25
36 | IVRVFHNDLSDYWAHDWRVP | -0.0659
37 | SGTAGRTQFNKLGELRPHRR | < -0.25
38 | PSDARSKLLVRIHTKTAPRQ | < -0.25
39 | QLVCPIVAHTWHIQGFWLGC | < -0.25
40 | DGKLGKTRFQNPGTRRRPCT | < -0.25
41 | TLIFVSPRLDKIIPR | < -0.25
42 | LDSPHNVHYV | < -0.25
43 | LFVVSPGPPFLRKVDLHLWA | < -0.25
44 | RSVL | < -0.25
45 | LGKAGHGLYFAGGEPSKCDT | < -0.25
46 | CGTEGRRACRGRISLSLQWP | < -0.25
47 | HSSTCLT | < -0.25
48 | PQRGPRQKVRWDRVQD | < -0.25
49 | GPAPVSGLITEAWSVLTVGS | < -0.25
50 | LIDVDATRTRRAIHGTAVPA | < -0.25

Row | Substance | growth estimate
51 | DDR | < -0.25
52 | GYRQAEAVASLEEQLGVLIH | < -0.25
53 | AYCLRLHMAGLGRVRFQPPL | < -0.25
54 | NQGRARMVMSARYLHGSPRP | < -0.25
55 | HIYHSGSIRRIPKEISRRSD | < -0.25
56 | GTHELR | < -0.25
57 | RITITTRQPSPLAPKFTTIP | < -0.25
58 | QLTHVSQHLDLDP | < -0.25
59 | GGSGLHGHGSRLR | -0.243
60 | ACA | < -0.25
61 | DSPAGSFRAI | < -0.25
62 | DFSGKRIPGRGVA | < -0.25
63 | TSCAHLAVHQKSSPLGNSAR | < -0.25
64 | LLGEARFGTLETSTPVRGSF | < -0.25
65 | PVCGKYPTTSGIEHPTGVVS | < -0.25
66 | FALEVDREAAVSLGYHSWSP | < -0.25
67 | HLSLIILVFCHESFPRAFIV | < -0.25
68 | RKPL | < -0.25
69 | LDDRRVWQFWLKMTWRRTVL | < -0.25
70 | TVY | -0.243
71 | NQPRLAPHVTRCRPAWEPLR | < -0.25
72 | SRPCQGKFEDGDTDDGRHGV | < -0.25
73 | TCPR | < -0.25
74 | QNPGGRVDAAAGRNAMCLSK | < -0.25
75 | YQLKSTLVASGPHISVGVPA | -0.246

Given field by field: part of the list above.
FRAMVRALSLMPCRTVTKAN
  growth estimate = < -0.25
VPQCPGL
  growth estimate = < -0.25

Later entries:

Row | Substance | growth estimate
76 | CQISRM | -0.246
77 | GVPTYC | < -0.25
78 | AHSQGNCREESGRTIRRPGT | < -0.25
79 | GRNGNCTCGVLSNKDVPAHV | < -0.25
80 | RLCVRRSIPHRFSTETIMMA | < -0.25
81 | QQMGHGF | < -0.25
82 | HPPIQGGPGPIDGARGGSST | < -0.25
83 | GKMKELHPGS | < -0.25
84 | TSHKTLR | < -0.25
85 | LDPLLRVPGIVTVRVWPGRS | < -0.25
86 | PPGPACVISIDCGVSHFRQQ | < -0.25
87 | QWCRVNLGTVCGLCPRAPYA | < -0.25
88 | APYANV | < -0.25
89 | EKVIRNRTQSAA | < -0.25
90 | QWGGELAAGLDM | < -0.25
91 | ARKP | < -0.25
92 | HPGREAFYGNC | < -0.25
93 | HSAGRHSSALAWAAYATPTF | < -0.25
94 | VFGSSFGDSSNHITHTKSFK | < -0.25
95 | AQS | < -0.25
96 | GHGLI | < -0.25
97 | WETFIKGSDEGVDDGMSTAY | < -0.25
98 | PPGVRKGSQE | < -0.25
99 | FARLAIPLRGTSSWNRFPAV | < -0.25

Copied from the list.
Value of PPGPACVISIDCGVSHFRQQ under growth estimate: < -0.25
Value of GRNGNCTCGVLSNKDVPAHV under growth estimate: < -0.25
Value of AHSQGNCREESGRTIRRPGT under growth estimate: < -0.25
Value of AQS under growth estimate: < -0.25
